Experimental data taken from paper PMC9765454.
Results are given in words; binding and its absence hold for the method and conditions named. Binding seen in cells or lysates may run through a third protein. A result given as binding can be weak or reduced; the word gives no strength. Tags and fused reporters may be left off the sequences shown.

Biological target: Flag-tagged IRF3 (interferon regulatory factor 3)
Test: co-IP; HEK293T cells cotransfected with Flag-IRF3 or Flag-EV and HA-SOCS1 for 24 h; lysates precipitated with Flag beads overnight; washed 5 times with low-salt lysis buffer (50 mM HEPES, 150 mM NaCl, 1 mM EDTA, 10% glycerol, 1.5 mM MgCl2, 1% Triton X-100); Western blot

B1: HA-tagged SOCS1 (suppressor of cytokine signaling 1) (protein, UniProt O35716 1-212)
chain: MVARNQVAADNAISPAAEPRRRSEPSSSSSSSSPAAPVRPRPCPAVPAPAPGDTHFRTFRSHSDYRRITRTSALLDACGFYWGPLSVHGAHERLRAEPVGTFLVRDSRQRNCFFALSVKMASGPTSIRVHFQAGRFHLDGSRETFDCLFELLEHYVAAPRRMLGAPLRQRRVRPLQELCRQRIVAAVGRENLARIPLNPVLRDYLSSFPFQI
binding: binds
